Laboratory results from patent publication US20120321614A1 (Amgen, published 2012).
No constants are given. Whether binding was seen depends on the method and setting. Some binding calls cover weakened binding; strength is not graded here.

These binders were tested against c-Met expressed on the surface of cynomolgus kidney cells (cynomolgus) (assay: flow cytometry on cynomolgus kidney cells).

| binding | Binder |
| --- | --- |
| binds | anti-c-Met monoclonal antibody 9.1.2 (antibody, V domains shown, Human IgG2 kappa; also called hybridoma 9.1.2 (LN 15884); PTA-5027) VH: QVQLQESGPGLVKPSQTLSLTCTVSGGSISSGGYYWSWIRQHPGKGLEWIGYIYYSGSTYYNPSLKSRVTISVDTSKNQFSLKLSSVTAADTAVYYCARDGPLGYCSSTSCPVTGEYYYYGMDVWGQGTTVTVSS VL: EIVLTQSPGTLSLSPGERATLSCRASQSVSNNYLAWYQQKPGQAPRLLIFGASSRATGIPDRFSGSGSGTDFTLTISRLEPEDFAVYYCQQYDISPMYSFGQGTKLEMKR |
| binds | anti-c-Met monoclonal antibody 8.70.2 (antibody, V domains shown, Human IgG2 kappa; also called hybridoma 8.70.2 (LN 15885); PTA-5028) VH: QLQLQESGPGLVKPSETLSLTCTVSGGSISSSSYYGGWIRQPPGKGLDWIGSIYYSGNTYYNPSLKSRVTISVDTSKNQFSLKLSSVTAADTAVYYCARHSWDYFDYWDQGTLVTVSS VL: DIQMTQSPSSVSASVGDRVTITCRASQGISSWLAWYQQKPGKAPKLLIYAASSLQSGVPSRFSGSGSGTDFTLTISSLQSEDFATYYCQQANSFPITFGPGTKVEIKR |
| binds | anti-c-Met monoclonal antibody 8.90.3 (antibody, V domains shown, Human IgG2 kappa) VH: EVQLVESGGGLVQPGGSLRLSCAASGFTFSRYSMNWVRQAPGKGLEWVSYISSRSSTIYYADSVKGRFTMSRDNAKNSLYMQMNSLRDEDTAVYYCGYGDYDYFDYWGQGTLVTVSS VL: DIQMTQSPSSVSASVGDRVIITCRASQGISSWLAWYQQKPGKAPKLLIYAASSLKSGVPSRFSGSGSGTDFTVTISSLQPEDFATYYCQQSNSLPWTFGQGTKVEIKR |
